## Assay results

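Control-channel Italica luciferase signal in doxycycline-induced 293T-iDUX4 cells, given as percent activity after a 24-hour treatment. The test concentration is not given here. Percent change in the Italica control signal; more negative values mean stronger inhibition, which points to nonspecific, tet-on or cytotoxic effects.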

Values are in %. Common to all entries: measured here: Italica tet-on control reporter. Part of the compounds only, not a random draw; the main read-out is not listed here.

structure,activity change (%)
COc1cccc(-c2ccc3c(c2)[C@H]2[C@H](CCN2S(=O)(=O)c2ccccc2F)[C@@H](CO)N3)c1,-59.07
C[C@@H]1CN([C@@H](C)CO)C(=O)c2c(c3ccccc3n2C)-c2ccccc2CO[C@H]1CN(C)C(=O)Cc1ccccc1,-7.169
O=C(NCC1CC1)[C@@H]1[C@@H](CO)[C@@H]2Cn3c(cccc3=O)[C@@H]2N1CCC(F)(F)F,-2.715
COc1ccc(C#Cc2ccc([C@H]3[C@H](CO)N4CCCCN(C(=O)Cc5ccccc5)C[C@@H]34)cc2)cc1,-4.379
N#Cc1cccc(-c2ccc(C3[C@@H]4CN(C(=O)c5ccccn5)C[C@H]3N4)cc2)c1 (some centres unmarked),-3.379
COc1ccc2c3c(n(C)c2c1)[C@H](CO)N(Cc1ccccc1)CC31CCN(C(=O)c2ccccc2F)CC1,-58.23
CCCN1[C@H](C(=O)N[C@H](C)c2ccccc2)[C@@H](CO)[C@@H]2Cn3c(ccc(-c4cccc(F)c4)c3=O)[C@@H]21,-23.22
COc1ccc(CN2CC3(C2)[C@H](c2ccccc2)[C@@H](CO)N3CC2CCCC2)cc1,-13.45
O=C(C1CCCCC1)N1[C@@H](CO)[C@@H](c2ccccc2)C12CN(Cc1cccc(Cl)c1)C2,-17.28
CCC(=O)N1CC[C@@H]2[C@H](CO)Nc3ccc(C#Cc4ccccc4F)cc3[C@@H]21,0.5739
CCCC#Cc1ccc([C@H]2[C@@H](CO)N3CCCCN(C(=O)NC4CCCC4)C[C@H]23)cc1,-19.02
O=C(c1ccccn1)N1CC(=O)N2[C@H](C1)[C@@H](c1ccc(C#Cc3ccccc3)cc1)[C@@H]2CO,-19.94
CO[C@@H]1CN(C)C(=O)c2ccc(NC(=O)C3CC3)cc2OC[C@H](C)N(CCc2ccccc2)C[C@H]1C,-8.93
O=C(C1CCCCC1)N1CC2(C1)[C@H](c1ccccc1)[C@H](CO)N2Cc1nccs1,-10.91
CN1c2ccc(-c3ccccc3)cc2[C@H]2[C@H](CCN2C(=O)c2ccccc2)[C@@H]1CO,-39.46
C[C@H](CO)N1C[C@H](C)[C@@H](CN(C)S(=O)(=O)c2ccccc2F)Oc2ncc(/C=C/c3ccccc3)cc2C1=O,-11.31
CCCNC(=O)N1CC(=O)N2[C@H](C1)[C@@H](c1ccc(C#CCC3CCCC3)cc1)[C@@H]2CO,-22.86
COc1cc(CN2CC3(CN(C)C3)c3c([nH]c4cc(OC)ccc34)[C@H]2CO)cc(OC)c1,0.3376
O=C(C[C@@H]1CC[C@@H]2[C@H](COC[C@@H](O)CN2Cc2cccc(-c3ccncc3)c2)O1)N1CCN(c2ccccc2)CC1,-66.63
O=C(c1ccc2c(c1)OCO2)N1CC(=O)N2[C@H](C1)[C@H](c1ccc(C#CCC3CCCC3)cc1)[C@@H]2CO,-22.77
O=C(c1ccc(F)cc1)N1CC(=O)N2[C@H](CO)[C@@H](c3ccc(C#CCC4CCCC4)cc3)[C@@H]2C1,-7.292
O=C(C[C@@H]1C[C@H]2c3cc(NC(=O)Nc4ccccc4)ccc3O[C@H]2[C@H](CO)O1)NC1CCCC1,-11.31
N#C[C@@H]1[C@H](c2ccccc2-c2ccccc2F)[C@@H](CO)N1C(=O)Cc1ccccc1,-14.45
COc1ccccc1S(=O)(=O)N1CC[C@@H]2[C@H](CO)Nc3ccc(-c4ccccc4F)cc3[C@@H]21,-37.25
CC(C)C#Cc1ccc([C@H]2[C@@H](CO)N3CCCCN(C(=O)c4ccc(F)cc4)C[C@@H]23)cc1,-13.32
O=C(c1ccc(F)cc1)N1C[C@@H]2N[C@H](C1)C2c1ccc(-c2ccccc2F)cc1 (some centres unmarked),-9.011
O=C(C[C@@H]1C[C@@H]2c3cc(NC(=O)Nc4ccccc4F)ccc3O[C@@H]2[C@@H](CO)O1)NCc1cc(F)ccc1F,-0.748
COc1cccc(-c2ccc([C@H]3[C@@H](CO)N4CCCCN(C(=O)c5ccc6c(c5)OCO6)C[C@H]34)cc2)c1,-73.97
CC(C)CC#Cc1ccc([C@H]2[C@@H](CO)N3CCCCN(S(=O)(=O)c4ccc(F)cc4)C[C@H]23)cc1,-1.914
O=C(C[C@H]1CC[C@H]2[C@@H](COC[C@@H](O)CN2C(=O)c2ccccc2)O1)Nc1ccc(-c2ccccc2)cc1,-6.645
O=C(C[C@@H]1CC[C@H]2[C@@H](COC[C@@H](O)CN2S(=O)(=O)c2ccccc2Cl)O1)NCc1ccccc1Cl,0.1504
COc1cccc(NC(=O)Nc2ccc3c(c2)C(=O)N(C)C[C@@H](OC)[C@H](C)CN(CC2CC2)[C@@H](C)CO3)c1,4.376
N#Cc1cccc(-c2ccc3c(c2)[C@H]2[C@H](CCN2S(=O)(=O)c2cccc(F)c2)[C@@H](CO)N3)c1,-31.31
O=C(C[C@@H]1CC[C@H]2[C@@H](COC[C@@H](O)CN2C(=O)Cc2ccccc2)O1)NC1Cc2ccccc2C1,-8.62
CN1c2ccc(C#Cc3cccnc3)cc2[C@H]2[C@H](CCN2S(=O)(=O)c2ccccc2)[C@@H]1CO,-21.32
N#C[C@@H]1[C@@H](c2ccc(C#Cc3cccc(F)c3)cc2)[C@@H](CO)N1C(=O)C1CC1,-28.29
O=S(=O)(c1ccccc1F)N1C[C@@H]2N[C@H](C1)C2c1ccc(-c2cccnc2)cc1 (some centres unmarked),-9.374
COc1ccc2c3c(n(C)c2c1)[C@@H](CO)N(C(=O)Nc1ccccc1F)CC31CCN(C(=O)c2ccccc2)CC1,-1.027
O=C(c1cccc(F)c1)N1CC2(C1)[C@H](c1ccccc1)[C@@H](CO)N2Cc1ccccn1,-2.894
CCCC#Cc1ccc([C@@H]2[C@H](CO)N3C(=O)CN(C(=O)NC4CCCC4)C[C@@H]23)cc1,-16.91
O=C(C[C@@H]1CC[C@@H]2[C@H](COC[C@@H](O)CN2C(=O)Nc2ccc(Cl)cc2)O1)NC1Cc2ccccc2C1,1.271
O=S(=O)(c1cccc(F)c1)N1CC[C@@H]2[C@@H](CO)Nc3ccc(C#Cc4cccc(F)c4)cc3[C@@H]21,2.612
C[C@@H]1CN([C@@H](C)CO)C(=O)c2ccccc2-c2ccccc2CO[C@@H]1CN(C)S(=O)(=O)c1ccc(Cl)cc1,-23.85
COc1cccc(-c2ccc3c(c2)[C@H]2[C@H](CCN2S(=O)(=O)c2cccc(OC)c2)[C@H](CO)N3)c1,-35.76
O=C(C[C@@H]1CC[C@H]2[C@@H](COC[C@H](O)CN2Cc2cc(F)ccc2F)O1)N[C@H]1CCN(Cc2ccccc2)C1,-7.544
COc1ccc2c3c(n(C)c2c1)[C@@H](CO)N(C)CC31CCN(S(=O)(=O)c2cccc(F)c2)CC1,-21.12
COc1cc(CN2C[C@@H]3N[C@H](C2)C3c2ccc(-c3ccc(C#N)cc3)cc2)cc(OC)c1 (some centres unmarked),-93.56
COc1ccc2c3c([nH]c2c1)[C@H](CO)N(Cc1ccncc1)CC31CCN(Cc2ccc(-c3ccccn3)cc2)CC1,6.527
O=C(c1ccc2c(c1)OCO2)N1CC(=O)N2[C@@H](CO)[C@H](c3ccc(C#CCC4CCCC4)cc3)[C@@H]2C1,-12.53
COc1ccc2c3c([nH]c2c1)[C@@H](CO)N(C(=O)Nc1cccc(F)c1)CC31CCN(S(=O)(=O)c2cccc(C)c2)CC1,-74.73
COc1ccc2c3c([nH]c2c1)[C@@H](CO)N(C(=O)Nc1ccccc1F)CC31CN(C(=O)c2ccccc2F)C1,-62.08
CCC(=O)N1CC(=O)N2[C@H](C1)[C@H](c1ccc(C#CC3CCCCC3)cc1)[C@@H]2CO,-1.526
C[C@@H]1CN([C@@H](C)CO)C(=O)c2ccccc2-c2ccccc2CO[C@@H]1CN(C)C(=O)Nc1cccc(Cl)c1Cl,-0.7621
COc1ccc2c3c([nH]c2c1)[C@H](CO)N(Cc1ccc(F)cc1)CC31CCN(C)CC1,-31.34
Cc1cccc(-c2ccc([C@@H]3[C@@H](CO)N4CCCCN(S(=O)(=O)c5ccccc5F)C[C@H]34)cc2)c1,-93.11
O=C(Nc1cc(F)ccc1F)N1[C@@H]2CNC[C@H]1C2c1ccc(-c2cccnc2)cc1 (some centres unmarked),0.5598
CC(C)CC#Cc1ccc([C@@H]2[C@H]3CN(C(=O)Nc4ccccc4)CCCCN3[C@H]2CO)cc1,-75.63

Data taken from PubChem BioAssay AID1224904, deposited by Broad Institute (2016).